PubChem BioAssay AID1259308 – NCATS | 2017
The deposit covers about 59,000 reagents; this is an unselected part. In the full data, about 1,510 (2.6%) got an active call. 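Calls use total luciferase alone and ignore viability, so some active siRNAs may act by altering cell number.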 Reagents against one gene are numbered here. Further read-outs or replicates are left out here.

Screen: 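Knock-downs that increase output of a recombinant reporter protein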 (primary screen)
Cells: human HEK293 embryonic kidney cells stably expressing firefly luciferase (HEK-CMV-Luc2-Hygro)
Reagent: single siRNA against human genes, 0.8 pmol siRNA per well
Duration: 72 h
Measured: 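Luciferase light (ONE-Glo) measured on one replicate plate set and viability (CellTiter-Glo) on the other, scaled to a negative control siRNA, with robust z-scores and luciferase per cell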
Scale: total luciferase, z-score and total luciferase, % of control: higher = more reporter protein produced
Call rule: 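Active when the median/MAD z-score for overall luciferase is greater than 3; a gene was taken forward for validation with new siRNAs if at least two of its three siRNAs passed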
Meaning of the calls: active = raised luciferase; inactive = no rise

TMEM183A (transmembrane protein 183A) #1 gave total luciferase, z-score -1.57; total luciferase, % of control 50.8; inactive.
TMEM183A (transmembrane protein 183A) #2 showed total luciferase, z-score 1.1; total luciferase, % of control 104; inactive.
With knock-down of TMEM183A (transmembrane protein 183A) #3, the screen gave total luciferase, z-score -0.421; total luciferase, % of control 73.5; inactive.
For ACSM2A (acyl-CoA synthetase medium chain family member 2A) #1, the entry reads total luciferase, z-score -0.593; total luciferase, % of control 70.1; inactive.
After knock-down of ACSM2A (acyl-CoA synthetase medium chain family member 2A) #2, the screen gave total luciferase, z-score 0.314; total luciferase, % of control 88.1; inactive.
For ACSM2A (acyl-CoA synthetase medium chain family member 2A) #3, the values are total luciferase, z-score 0.483; total luciferase, % of control 91.5; inactive.
For ZBTB42 (zinc finger and BTB domain containing 42) #1 the deposit lists total luciferase, z-score -0.986; total luciferase, % of control 62.3; inactive.
ZBTB42 (zinc finger and BTB domain containing 42) #2 gave total luciferase, z-score 1.06; total luciferase, % of control 103; inactive.
Against ZBTB42 (zinc finger and BTB domain containing 42) #3, the values are total luciferase, z-score -1.06; total luciferase, % of control 60.7; inactive.
After knock-down of CD2AP (CD2 associated protein) #1, the record shows total luciferase, z-score 0.0922; total luciferase, % of control 83.7; inactive.
CD2AP (CD2 associated protein) #2 gave total luciferase, z-score -1.43; total luciferase, % of control 53.4; inactive.
With knock-down of CD2AP (CD2 associated protein) #3 the results were total luciferase, z-score -1.09; total luciferase, % of control 60.1; inactive.
Depletion of FBXO40 (F-box protein 40) #1 gave: total luciferase, z-score -0.644; total luciferase, % of control 69.1; inactive.
Knock-down of FBXO40 (F-box protein 40) #2 gave: total luciferase, z-score 0.523; total luciferase, % of control 92.3; inactive.
Depletion of FBXO40 (F-box protein 40) #3 came out at: total luciferase, z-score -0.182; total luciferase, % of control 78.3; inactive.
Depletion of OR1Q1 (olfactory receptor family 1 subfamily Q member 1) #1 resulted in: total luciferase, z-score -0.483; total luciferase, % of control 72.3; inactive.
Against OR1Q1 (olfactory receptor family 1 subfamily Q member 1) #2, the entry reads total luciferase, z-score -0.47; total luciferase, % of control 72.5; inactive.
OR1Q1 (olfactory receptor family 1 subfamily Q member 1) #3 gave total luciferase, z-score 0.428; total luciferase, % of control 90.4; inactive.
Silencing of GLB1L2 (galactosidase beta 1 like 2) #1 gave: total luciferase, z-score 0.802; total luciferase, % of control 97.8; inactive.
Depletion of GLB1L2 (galactosidase beta 1 like 2) #2 gave: total luciferase, z-score -0.635; total luciferase, % of control 69.3; inactive.
With knock-down of GLB1L2 (galactosidase beta 1 like 2) #3, the screen gave total luciferase, z-score 2.6; total luciferase, % of control 134; inactive.
With knock-down of CFTR (CF transmembrane conductance regulator) #1, the screen gave total luciferase, z-score -0.582; total luciferase, % of control 70.3; inactive.
Depletion of CFTR (CF transmembrane conductance regulator) #2 gave: total luciferase, z-score -0.565; total luciferase, % of control 70.6; inactive.
Against CFTR (CF transmembrane conductance regulator) #3 the deposit lists total luciferase, z-score -1.46; total luciferase, % of control 52.8; inactive.

6 entries from above, ordered by “total luciferase, z-score”, high to low.
FBXO40 (F-box protein 40) #2 → total luciferase, z-score = 0.523; total luciferase, % of control = 92.3; outcome = inactive
FBXO40 (F-box protein 40) #3 → total luciferase, z-score = -0.182; total luciferase, % of control = 78.3; outcome = inactive
OR1Q1 (olfactory receptor family 1 subfamily Q member 1) #1 → total luciferase, z-score = -0.483; total luciferase, % of control = 72.3; outcome = inactive
FBXO40 (F-box protein 40) #1 → total luciferase, z-score = -0.644; total luciferase, % of control = 69.1; outcome = inactive
CD2AP (CD2 associated protein) #3 → total luciferase, z-score = -1.09; total luciferase, % of control = 60.1; outcome = inactive
CD2AP (CD2 associated protein) #2 → total luciferase, z-score = -1.43; total luciferase, % of control = 53.4; outcome = inactive

Continued.
Knock-down of SLC19A4P #1 gave: total luciferase, z-score 0.632; total luciferase, % of control 94.5; inactive.
Silencing of SLC19A4P #2 came out at: total luciferase, z-score 0.465; total luciferase, % of control 91.1; inactive.
Depletion of SLC19A4P #3 came out at: total luciferase, z-score -0.865; total luciferase, % of control 64.7; inactive.
ZAN (zonadhesin) #1 showed total luciferase, z-score -0.179; total luciferase, % of control 78.3; inactive.
Silencing of ZAN (zonadhesin) #2 resulted in: total luciferase, z-score 1.13; total luciferase, % of control 104; inactive.
ZAN (zonadhesin) #3 showed total luciferase, z-score 0.942; total luciferase, % of control 101; inactive.
Against STAT2 (signal transducer and activator of transcription 2) #1 the deposit lists total luciferase, z-score -0.444; total luciferase, % of control 73.1; inactive.
For STAT2 (signal transducer and activator of transcription 2) #2 the deposit lists total luciferase, z-score 1.3; total luciferase, % of control 108; inactive.
With knock-down of STAT2 (signal transducer and activator of transcription 2) #3 the results were total luciferase, z-score 0.0116; total luciferase, % of control 82.1; inactive.
With knock-down of AP1S1 (adaptor related protein complex 1 subunit sigma 1) #1, the screen gave total luciferase, z-score -1.2; total luciferase, % of control 58.1; inactive.
Silencing of AP1S1 (adaptor related protein complex 1 subunit sigma 1) #2 resulted in: total luciferase, z-score 0.905; total luciferase, % of control 99.9; inactive.
AP1S1 (adaptor related protein complex 1 subunit sigma 1) #3 gave total luciferase, z-score -1.9; total luciferase, % of control 44.1; inactive.
For ARHGAP1 (Rho GTPase activating protein 1) #1 the deposit lists total luciferase, z-score -1.72; total luciferase, % of control 47.7; inactive.
Depletion of ARHGAP1 (Rho GTPase activating protein 1) #2 gave: total luciferase, z-score -0.445; total luciferase, % of control 73; inactive.
ARHGAP1 (Rho GTPase activating protein 1) #3 scored total luciferase, z-score 4.01; total luciferase, % of control 162; active.
After knock-down of PCDHGA4 (protocadherin gamma subfamily A, 4) #1 the results were total luciferase, z-score 0.684; total luciferase, % of control 95.5; inactive.
Depletion of PCDHGA4 (protocadherin gamma subfamily A, 4) #2 came out at: total luciferase, z-score -0.33; total luciferase, % of control 75.3; inactive.
PCDHGA4 (protocadherin gamma subfamily A, 4) #3 showed total luciferase, z-score 1.37; total luciferase, % of control 109; inactive.
